This note sets out measurements from doi:10.1101/288811.

Test [1] addresses T1, BAC49563 (DctA) (Bradyrhizobium diazoefficiens USDA 110) (UniProt Q89M95).
T1 sequence: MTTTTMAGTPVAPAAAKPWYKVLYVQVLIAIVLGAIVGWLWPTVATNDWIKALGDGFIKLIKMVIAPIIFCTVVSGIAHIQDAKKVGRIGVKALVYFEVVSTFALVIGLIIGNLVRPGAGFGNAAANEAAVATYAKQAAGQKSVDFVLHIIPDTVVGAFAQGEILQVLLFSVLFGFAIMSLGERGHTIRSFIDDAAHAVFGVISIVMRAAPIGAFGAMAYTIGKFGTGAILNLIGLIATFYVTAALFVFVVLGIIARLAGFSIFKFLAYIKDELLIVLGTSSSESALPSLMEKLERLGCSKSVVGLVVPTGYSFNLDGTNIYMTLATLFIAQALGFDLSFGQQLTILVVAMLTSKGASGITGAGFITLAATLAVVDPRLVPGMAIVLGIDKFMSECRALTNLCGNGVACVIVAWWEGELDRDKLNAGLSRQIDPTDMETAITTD
Briefly: split reporter.

Test [2] concerns the target T2, BAC48988 (DctA) (Bradyrhizobium diazoefficiens USDA 110) (UniProt Q89NW0).
T2 sequence: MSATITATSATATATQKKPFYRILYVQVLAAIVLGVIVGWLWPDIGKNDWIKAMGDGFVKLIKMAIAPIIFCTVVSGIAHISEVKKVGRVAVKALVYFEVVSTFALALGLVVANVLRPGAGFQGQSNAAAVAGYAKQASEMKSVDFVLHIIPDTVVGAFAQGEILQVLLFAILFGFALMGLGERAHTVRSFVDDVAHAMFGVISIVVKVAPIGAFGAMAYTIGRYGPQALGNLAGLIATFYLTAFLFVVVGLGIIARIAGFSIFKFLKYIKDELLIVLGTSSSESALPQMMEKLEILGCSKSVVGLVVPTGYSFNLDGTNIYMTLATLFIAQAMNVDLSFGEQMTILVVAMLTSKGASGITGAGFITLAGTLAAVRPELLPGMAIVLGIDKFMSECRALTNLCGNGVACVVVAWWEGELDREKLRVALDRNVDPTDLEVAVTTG
Briefly: split reporter.

No constants are given. Whether binding was seen depends on the method and setting. Binding seen in cells or lysates may run through a third protein. A result given as binding can be weak or reduced; the word gives no strength.

With Glyma.02G208700 (SGF14g) (Glycine max), the binding result in test [1] and in test [2] was “binds” throughout.
As to Glyma13G158600 (from UniProt I1LZP7), the binding result in test [1] is reported as “binds”.
Turning to Glyma.14G176900 (SGF14k) (Glycine max), the binding result in test [1] and in test [2] was “binds” throughout.
